The whole screen tested about 340,000 compounds, of which about 6,200 (1.8%) were called active. This list was built around the results that the source calls inconclusive (neither active nor inactive); the mix of calls is not that of the screen. Calls follow the shape of the dose curve; as a rule, active = well fitted activation curve with a large enough effect; inconclusive = small, poorly fitted or top-dose-only effect; inactive = no such curve, though single readings can be large or run the other way. A potency beside an inconclusive call is a rough fit, not a confirmed value.
Experiment: A quantitative high throughput screen for small molecules that induce DNA re-replication in SW480 colon adenocarcinoma cells. Also: nearly all actives have a fitted effect of over 55% in size. As to re-replication activation: % of control where 0% means no effect.
Conditions: Hoechst DNA content imaging, 48 h; re-replication activation: at 46.1 µM (top of the series) unless noted
Summary of the method: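 First, 250 cells per well were seeded. Next, compound or vehicle (23 nL) was pinned in, plates sat 48 hr at 37 C. Finally Hoechst was added for 40 min before fluorescence scanning.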
Potency is read from the fitted curve at half-maximal effect.

Row | Compound | Potency | re-replication activation
1 | COC(=O)c1cc2c(ccn2-c2ccc(F)cc2)n1CC(C)C | inconclusive: 29.1 µM [activator, partial curve, poor fit] | –
2 | Cn1nnnc1Sc1ncnc2scc(-c3cccc4c3sc3ccccc34)c12 | inconclusive: 32.6 µM [activator, partial curve, poor fit] | –
3 | COC(=O)[C@@H]1C[C@@]2(O)[C@@H](O)[C@@H](O)[C@@H](O)C[C@H]2N1CC(c1ccccc1)c1ccccc1 | inconclusive: 1.3 µM [activator, single point] | –
4 | NC(=O)N1c2ccccc2CC(=O)c2ccccc21 | inconclusive: 33.5 µM [activator, partial curve, poor fit] | –
5 | COCCNC(=S)N(CCc1c(C)[nH]c2ccc(C)cc12)Cc1cc(OC)c(OC)c(OC)c1 | inconclusive: 9.2 µM [activator, partial curve] | –
6 | Cc1c2cc(O)c(=O)cc-2oc2cc(O)c(O)cc12 | inconclusive: 25.9 µM [activator, partial curve, poor fit] | –
7 | O=C(c1ccc(N2C(=O)CCC2=O)cc1)N1CCOCC1 | inconclusive: 0.58 µM [activator, full curve, poor fit] | –
8 | CN(C)C(CNc1ccc(S(C)(=O)=O)cc1[N+](=O)[O-])Cc1ccccc1 (stereo unspecified) | inactive | –
9 | COc1ccc(-n2c(=S)[nH]c3ncccc3c2=O)cc1 | inactive | –
10 | COc1ccccc1OCC(=O)NC1CCCCCCC1 | inactive | –
11 | O=C(COc1ccc(Br)cc1Br)NC1CCCC1 | inconclusive: 0.0052 µM [activator, full curve, poor fit] | –
12 | CCOC(=O)c1cnc2c(c(C)nn2CC)c1NCCN1CCOCC1 | inconclusive: 0.0326 µM [activator, full curve, poor fit] | –
13 | O=C(Nc1cccc2ncccc12)c1cccnc1 | inconclusive: 20.6 µM [activator, partial curve, poor fit] | –
14 | COc1cccc(/C=C2\C(=O)C(=O)c3ccccc32)c1 | inconclusive: 31.6 µM [activator, single point] | –
15 | O=C(Nc1cccc([N+](=O)[O-])c1)NC1CCCCCCC1 | inconclusive: 20.6 µM [activator, single point] | –
16 | Cc1ccc(CN2CC(C(=O)NCCCn3nc(C)cc3C)CC2=O)cc1 (stereo unspecified) | inconclusive: 0.0058 µM [activator, full curve, poor fit] | –
17 | CCN(CC(O)CON=C1c2ccccc2-c2ccccc21)S(=O)(=O)c1ccc(Cl)cc1 (stereo unspecified) | inactive | –
18 | CC(=O)c1ccc(OCc2cc(C(=O)N3CCOCC3)no2)cc1 | inconclusive: 0.184 µM [activator, full curve, poor fit] | –
19 | O=C1Nc2ccc(S(=O)(=O)NCc3ccco3)c3cccc1c23 | inconclusive: 29.1 µM [activator, single point] | –
20 | O=C(Cc1ccccc1F)N1CCN(S(=O)(=O)c2ccc(Cl)cc2)CC1 | inconclusive: 4.61 µM [activator, full curve, poor fit] | –
21 | O=C(COC(=O)CNC(=O)c1ccc(Cl)cc1)Nc1cccc(S(=O)(=O)N2CCCC2)c1 | inactive | –
22 | Cn1c2c(c(=O)n(C)c1=O)C(CC(=O)Nc1ccccc1F)C(=O)N2 (stereo unspecified) | inconclusive: 29.1 µM [activator, partial curve, poor fit] | –

Row | Compound | Potency | re-replication activation
23 | O=C(O)c1ccc2c(c1)C(=O)N(c1ccc(/C=C/C(=O)c3ccccc3)cc1)C2=O | inconclusive: 20.6 µM [activator, single point] | –
24 | COc1ccc(C)cc1NC(=O)NCCC1=CCCCC1 | inactive | –
25 | CC1(C)OC(=O)C(=CNn2cnc3ccccc3c2=O)C(=O)O1 | inconclusive: 29.1 µM [activator, single point] | –
26 | COC(=O)C1=C(C(=O)OC)[C@@H]2N(C)c3ccccc3[C@@]23C[C@@H](C(=O)OC)N(C(=O)c2ccc(Br)cc2)C3=N1 | inconclusive: 29.1 µM [activator, single point] | –
27 | COc1cccc(C2=NN(C(=O)c3ccco3)C(O)(C(F)(F)F)C2)c1 (stereo unspecified) | inconclusive: 29.1 µM [activator, partial curve, poor fit] | –
28 | O=C(Nc1cccc(O)c1)N1CCOCC1 | inactive | –
29 | O=C(Cc1ccc(Cl)cc1)Nc1ccccc1C(=O)N1CCCC1 | inactive | –
30 | Cc1ccc(-c2csc(/C(C#N)=C/Nc3ccc4c(c3)OCCO4)n2)cc1 | inconclusive: 23.1 µM [activator, single point] | –
31 | Cc1nc(N)sc1C(=O)NN | inactive | –
32 | CCCCN(CCCNC(=O)c1ccc(CS(=O)(=O)c2c(Cl)cccc2Cl)o1)Cc1ccccc1 | inconclusive: 29.1 µM [activator, single point] | –
33 | OCCNc1ncnc2c1sc1nc(N3CCOCC3)c3c(c12)CCC3 | inactive | –
34 | O=C(Nc1ccc(Cl)cc1)Nc1nc(-c2sccc2Br)cs1 | inactive | –
35 | O=C(Nc1ccc([N+](=O)[O-])cc1)c1ccccc1F | inconclusive: 20.6 µM [activator, partial curve, poor fit] | –
36 | Cc1ccc(C(=O)Nc2ccc3c(c2)OCCO3)cc1S(=O)(=O)N1CCOCC1 | inconclusive: 29.1 µM [activator, single point] | –
37 | NC(=O)c1ccc(NC(=O)COC(=O)/C=C/c2cn(-c3ccccc3)nc2-c2cccnc2)cc1 | active: 5.17 µM | –
38 | O=C(Nc1cccc(-c2cccc(Cl)c2)c1)C1CCN(Cc2ccon2)CC1 | inconclusive: 25.9 µM [activator, single point] | –
39 | O=C(CN1C(=O)S/C(=C\C=C\c2ccccc2)C1=O)NC1CCS(=O)(=O)C1 (stereo unspecified) | inconclusive: 29.1 µM [activator, single point] | –
40 | COc1ccc(OC)c(S(=O)(=O)NNC(=S)Nc2ccc3c(c2)OCO3)c1 | inconclusive: 29.1 µM [activator, single point] | –
41 | CC(C)Cn1c(N)c(C(=O)CSc2ccccc2)c(=O)n(C)c1=O | inactive | –
42 | CCc1ccc(C(C)NC(=O)/C=C/c2ccc(Br)cc2)cc1 (stereo unspecified) | inactive | –
43 | Cc1cc2c(c(=O)o1)C(C1C=CCCC1)C(C#N)=C(N)O2 (stereo unspecified) | inactive | –
44 | Cc1[nH]n(-c2cccc3ccccc23)c(=O)c1/C=N/NC(=O)c1cccc([N+](=O)[O-])c1 | inconclusive: 18.4 µM [activator, single point] | –

Some of the entries so far, with tabs:
Row	Compound	Potency	re-replication activation
3	COC(=O)[C@@H]1C[C@@]2(O)[C@@H](O)[C@@H](O)[C@@H](O)C[C@H]2N1CC(c1ccccc1)c1ccccc1	inconclusive: 1.3 µM [activator, single point]	–
4	NC(=O)N1c2ccccc2CC(=O)c2ccccc21	inconclusive: 33.5 µM [activator, partial curve, poor fit]	–
5	COCCNC(=S)N(CCc1c(C)[nH]c2ccc(C)cc12)Cc1cc(OC)c(OC)c(OC)c1	inconclusive: 9.2 µM [activator, partial curve]	–
6	Cc1c2cc(O)c(=O)cc-2oc2cc(O)c(O)cc12	inconclusive: 25.9 µM [activator, partial curve, poor fit]	–
7	O=C(c1ccc(N2C(=O)CCC2=O)cc1)N1CCOCC1	inconclusive: 0.58 µM [activator, full curve, poor fit]	–
8	CN(C)C(CNc1ccc(S(C)(=O)=O)cc1[N+](=O)[O-])Cc1ccccc1 (stereo unspecified)	inactive	–
9	COc1ccc(-n2c(=S)[nH]c3ncccc3c2=O)cc1	inactive	–
10	COc1ccccc1OCC(=O)NC1CCCCCCC1	inactive	–
11	O=C(COc1ccc(Br)cc1Br)NC1CCCC1	inconclusive: 0.0052 µM [activator, full curve, poor fit]	–
12	CCOC(=O)c1cnc2c(c(C)nn2CC)c1NCCN1CCOCC1	inconclusive: 0.0326 µM [activator, full curve, poor fit]	–
13	O=C(Nc1cccc2ncccc12)c1cccnc1	inconclusive: 20.6 µM [activator, partial curve, poor fit]	–
14	COc1cccc(/C=C2\C(=O)C(=O)c3ccccc32)c1	inconclusive: 31.6 µM [activator, single point]	–
15	O=C(Nc1cccc([N+](=O)[O-])c1)NC1CCCCCCC1	inconclusive: 20.6 µM [activator, single point]	–

(list continues)

Row | Compound | Potency | re-replication activation
45 | O=C(CCc1nnc(COc2ccccc2)o1)NCc1ccccc1 | inconclusive: 2.59 µM [activator, partial curve] | –
46 | Cc1nn(-c2ccccc2)c(C)c1C(=O)OCC(O)=C(C#N)c1nc2ccccc2[nH]1 | inconclusive: 20.6 µM [activator, partial curve, poor fit] | –
47 | CC(C)CCNc1nc(N)c([N+](=O)[O-])c(N2CCCCCC2)n1 | – | inconclusive: -2.45% [activator]
48 | CCN(CC)c1ccc(/C=C(\C#N)C(=O)c2ccc(Br)cc2)cc1 | inconclusive: 18.4 µM [activator, partial curve, poor fit] | –
49 | O=S(=O)(NC1c2cccc3cccc(c23)C1N1CCNCC1)c1ccc(Cl)cc1 (stereo unspecified) | inactive | –
50 | Cc1cc(S(=O)(=O)Nc2ccc(C(=O)N3CCN(C(=O)c4ccco4)CC3)cc2)ccc1F | inactive | –
51 | COc1ccccc1NS(=O)(=O)c1ccc2c(c1)NC(=O)C(C)S2 (stereo unspecified) | inconclusive: 1.64 µM [activator, partial curve, poor fit] | –
52 | CCCN1CCC(=O)N([C@H](CN=[N+]=[N-])CC(C)C)CC1 | inconclusive: 2.31 µM [activator, full curve, poor fit] | –
53 | OC(CNCCc1ccc(C(F)(F)F)cc1)COc1cccc2ccccc12 (stereo unspecified) | active: 16.4 µM | –
54 | C/C(=N\NC(=S)NCc1ccccc1)c1cccs1 | inconclusive: 32.6 µM [activator, single point] | –
55 | CCCOC(=O)c1[nH]c2c(c1C)C(=O)CC(c1cccs1)C2 (stereo unspecified) | inconclusive: 0.447 µM [activator, full curve, poor fit] | –
56 | CC1CCC2(CC1)NC(=O)N(Cc1cccc(C(F)(F)F)c1)C2=O (stereo unspecified) | inconclusive: 29.1 µM [activator, single point] | –
57 | COc1ccc(C(CNC(=O)Cc2c(F)cccc2Cl)N2CCCCC2)cc1 (stereo unspecified) | inconclusive: 18.4 µM [activator, partial curve, poor fit] | –
58 | Cc1ccc(-c2nc(N3CCN(C)CC3)c3ccccc3n2)cc1 | inconclusive: 32.6 µM [activator, single point] | –
59 | CC(/C=N/NC(=O)NC1CCCCC1)=C\c1ccccc1 | inconclusive: 14.6 µM [activator, partial curve, poor fit] | –
60 | COc1ccc(OC)c(-c2nnc3n2N=C(c2ccc(OC)c(OC)c2)CS3)c1 | inconclusive: 0.13 µM [activator, full curve, poor fit] | –
61 | CCN(CC(=O)NCc1ccc(F)cc1)C(=O)c1oc2ccccc2c1C | inconclusive: 29.1 µM [activator, single point] | –
62 | COc1cc([N+](=O)[O-])ccc1NC(=O)C1CCCN(S(C)(=O)=O)C1 (stereo unspecified) | inconclusive: 29.1 µM [activator, single point] | –
63 | Oc1ccc(-c2ccccc2)cc1CN1CCCCCC1 | inconclusive: 18.4 µM [activator, single point] | –
64 | CCN(CC)C(=O)N1CCN(S(=O)(=O)c2c(C)cc(C)cc2C)CC1 | inconclusive: 5.17 µM [activator, partial curve, poor fit] | –
65 | CCOc1ccccc1NC(=O)Nc1ccc2c(c1)CCC2 | inactive | –
66 | Cc1ccc(/C=N/n2c(C)nnc2C)o1 | inconclusive: 29.1 µM [activator, single point] | –

From PubChem BioAssay AID624297 (National Center for Advancing Translational Sciences (NCATS), 2012)
